# Experimental data reported in PubChem BioAssay AID2685 (National Center for Advancing Translational Sciences (NCATS), 2010).
# The other results are listed elsewhere or left out. These are further read-outs of the screen, such as a control signal, another cell line or another target. No call is given for them. Most of these compounds were active or inconclusive in the main read-out, so they are no random draw. Potencies come from curve fits of mixed quality, noted in brackets.
# Experiment: qHTS Assay for Lipid Storage Modulators in Drosophila S3 Cells;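 as to cell number change: cells counted by Cell Tracker Red CMTPX staining in the red channel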
# Conditions: BODIPY lipid droplet fluorescence, 18-24 h; for cell number change: measured here: cell count max response, cells fed with added oleic acid
# Method in brief: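 Drosophila S3 cells loaded with oleic acid (400 uM, as added) and compounds at several concentrations; lipid droplets imaged by 488-nm laser-scanning cytometry, 500–530 nm intensity and object ratio to cell channel. Percent activity normalized to 20 uM Triacsin C.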
# [1] = measured here: lipid fluorescence (Fed channel) AC50, cells fed with added oleic acid
# [2] = measured here: cell number channel AC50, cells fed with added oleic acid
Compound,cell number change [%],AC50 [1],AC50 [2]
Cc1nc(N2CCN(C(=O)c3cccs3)CC2)c2c3c(sc2n1)CCCC3,-30.5,"29.1 µM [rising, single point]",–
O=C(N/N=C\c1ccc(COc2ccc([N+](=O)[O-])cc2)o1)c1cccc(Cl)c1,-34.6,"11.6 µM [falling, partial curve]","3.66 µM [falling, full curve, poor fit]"
O=C(Nc1ccc2oc(-c3ccccc3F)nc2c1)c1ccc([N+](=O)[O-])o1,-1.65,"0.92 µM [falling, full curve, poor fit]",–
COc1ccc(CCNC(=O)c2ccc(Cl)nc2)cc1,-10.5,–,–
COc1ccc(F)cc1S(=O)(=O)NCCCn1ccnc1,-16,–,–
N#CCC(=O)Nc1ccc(C(=O)OCC(=O)Nc2ccc3ccccc3c2)cc1,–,"1.84 µM [rising, partial curve]",–
Cc1nc2c(c(C)c1C#N)C(=O)c1ccccc1-2,5.41,–,–
O=C(O)c1cc(NC(=O)c2cccc(F)c2)cc(NC(=O)c2cccc(F)c2)c1,-15.9,–,–
CSc1ncccc1C(=O)Nc1ccc2nc(C)sc2c1,7.12,"0.0461 µM [rising, full curve, poor fit]",–
COCCCN1CN(Cc2ccco2)CNC1=S,4.91,–,–
CN(C)/C=N/c1nc2nccc(-c3cccc(Cl)c3)n2n1,–,"0.13 µM [rising, full curve, poor fit]","0.146 µM [rising, full curve, poor fit]"
C/C(=N\NS(=O)(=O)c1ccc(Br)cc1)c1cccs1,-17.2,"6.51 µM [falling, single point]",–
COc1ccc(N2CCN(C(CNC(=O)c3cccc(Cl)c3)c3cccnc3)CC2)cc1 (stereo unspecified),2.05,"0.164 µM [rising, full curve, poor fit]",–
C=CCn1c(=O)n(C(=O)OCC)c2cc(Br)ccc21,–,"25.9 µM [rising, partial curve]",–
CCc1nnc(SCC(=O)Nc2nnc(C)s2)n1CC1CCCO1 (stereo unspecified),-24.9,–,–
COCCNc1nnc(SCC(=O)c2c[nH]c3ccccc23)s1,-16.7,"25.9 µM [falling, partial curve, poor fit]",–
COc1ccc(Cl)cc1NC(=O)COC(=O)CCc1cc(OC)c(OC)c(OC)c1,20.8,"25.9 µM [rising, partial curve]","3.66 µM [rising, full curve, poor fit]"

# 8 compounds already listed, ordered by formula weight, ascending:
Compound,cell number change [%],AC50 [1],AC50 [2]
COc1ccc(CCNC(=O)c2ccc(Cl)nc2)cc1,-10.5,–,–
COc1ccc(F)cc1S(=O)(=O)NCCCn1ccnc1,-16,–,–
CSc1ncccc1C(=O)Nc1ccc2nc(C)sc2c1,7.12,"0.0461 µM [rising, full curve, poor fit]",–
C/C(=N\NS(=O)(=O)c1ccc(Br)cc1)c1cccs1,-17.2,"6.51 µM [falling, single point]",–
CCc1nnc(SCC(=O)Nc2nnc(C)s2)n1CC1CCCO1 (stereo unspecified),-24.9,–,–
O=C(O)c1cc(NC(=O)c2cccc(F)c2)cc(NC(=O)c2cccc(F)c2)c1,-15.9,–,–
COc1ccc(Cl)cc1NC(=O)COC(=O)CCc1cc(OC)c(OC)c(OC)c1,20.8,"25.9 µM [rising, partial curve]","3.66 µM [rising, full curve, poor fit]"
COc1ccc(N2CCN(C(CNC(=O)c3cccc(Cl)c3)c3cccnc3)CC2)cc1 (stereo unspecified),2.05,"0.164 µM [rising, full curve, poor fit]",–

# More entries

Compound,cell number change [%],AC50 [1],AC50 [2]
CN(CC(=O)Nc1ccc(N2CCOCC2)cc1)C(=O)CSc1ccc(Br)cc1,-0.54,"29.1 µM [falling, partial curve, poor fit]",–
O=C(Nc1ccc(OCC(F)(F)C(F)F)cc1)c1ccncc1,25.9,–,–
Cc1ccc(C)c(NC(=S)/C(=C(\[O-])c2ccc(Cl)s2)[n+]2ccccc2)c1,69.4,–,–
O=c1cc(N2CCCCC2)c(-c2ccccc2)nn1Cc1cccc(Cl)c1,–,"29.1 µM [falling, single point]",–
CC(C)C(=O)Nc1cccc(NC(=S)NC(=O)c2ccc([N+](=O)[O-])cc2)c1,-33.8,"6.51 µM [falling, full curve]","25.9 µM [falling, single point]"
Cc1cc(Nc2ccc(C(C)C)cc2)n2ncnc2n1,10,"16.4 µM [rising, partial curve, poor fit]",–
Cc1cccc(NC(=O)COC(=O)CCc2ccccc2)c1C,21.7,"14.6 µM [rising, single point]",–
O=C(O)C1CC=CCC1C(=O)NNS(=O)(=O)c1ccccc1 (stereo unspecified),-56.6,–,"0.00517 µM [falling, full curve, poor fit]"
CCC(CC)C(=O)Nc1cccc(/C(C)=N/NC(=O)c2ccccc2Cl)c1,92.9,–,"16.4 µM [rising, single point]"
COc1cc(Cl)c(S(=O)(=O)N2CC(C)OC(C)C2)cc1Cl (stereo unspecified),2.4,–,–
Cn1c(=O)cc(OCCCC(=O)N2CCN(c3ccccn3)CC2)c2ccccc21,–,"0.259 µM [rising, full curve, poor fit]","0.231 µM [rising, full curve, poor fit]"
COC(=O)c1scc(C)c1NC(=O)/C=C/C(=O)O,-48.3,"29.1 µM [falling, single point]","16.4 µM [falling, single point]"
CCc1ccc(C(=O)NN=C2CCCCCC2)s1,–,"2.91 µM [rising, single point]",–
COc1ccc(CCNC(=O)c2cnccn2)cc1,-8.17,–,–
COc1ccc2cc(OCC(=O)NNC(=O)Nc3ccc(C(C)=O)cc3)ccc2c1,19.2,–,–
CCC(c1nnnn1C1CCCCC1)N(Cc1ccco1)Cc1cc2ccc(OC)cc2[nH]c1=O (stereo unspecified),-42.5,"0.259 µM [rising, partial curve]","20.6 µM [falling, single point]"
